Experimental data: PubChem BioAssay AID1259298 (Sanger Institute, 2017)
The deposit covers 794 reagents; this is a random part of them. Over the whole deposit, 20 (2.5%) were called active. 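Calls rest only on the knock-down-alone score; drug synergy scores played no part in them.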 Unmarked entries are inactive. Viability is capped at 1. The record does not give: the amount of reagent, the time to read-out.

- Purpose: 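Kinases whose loss strengthens killing by BYL719, cetuximab or trametinib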 (primary screen)
- Cell system: HT55 human colorectal cancer cell line
- Reagents: siRNA pool against human genes
- Challenge: anchor drug BYL719 1 µM, cetuximab 5 µg/ml or trametinib 10 nM, or DMSO vehicle alone
- Detection: 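Replicate-averaged viability versus wells of non-targeting pool; knock-down-only robust z-score; per-drug synergy score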
- Reading the numbers: robust z-score, knock-down alone: higher = more cells remaining; low means essential gene; viability vs control pool, no drug: higher = more viable cells; synergy score with BYL719 and synergy score with cetuximab and synergy score with trametinib: higher = stronger synthetic lethality with the drug
- Rule for the call: 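a gene counts as essential if its knock-down-alone robust z-score falls under -3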
- Meaning of the calls: active = essential (knock-down alone); inactive = no change alone

Gene | robust z-score, knock-down alone | viability vs control pool, no drug (fraction) | synergy score with BYL719 | synergy score with cetuximab | synergy score with trametinib
EPHA10 (EPH receptor A10) | 0.58 | 1 | -0.144 | 0.105 | 0.19
EPHA6 (EPH receptor A6) | -1.43 | 0.843 | -0.0367 | 0.0894 | 0.128
PRKCH (protein kinase C eta) | -2.34 | 0.772 | -0.181 | -0.0448 | 0.0605
KALRN (kalirin RhoGEF kinase) | 0.58 | 1 | -0.237 | -0.116 | 0.0867
ULK3 (unc-51 like kinase 3) | 0.58 | 1 | -0.251 | -0.211 | -0.177
MAPK11 (mitogen-activated protein kinase 11) | 0.58 | 1 | -0.14 | -0.0863 | 0.0866
RPS6KA3 (ribosomal protein S6 kinase A3) | 0.58 | 1 | -0.124 | -0.211 | -0.0776
STK25 (serine/threonine kinase 25) | 0.58 | 1 | -0.245 | -0.12 | 0.0278
STK40 (serine/threonine kinase 40) | 0.525 | 0.996 | -0.148 | -0.165 | -0.0374
PIP5K1C (phosphatidylinositol-4-phosphate 5-kinase type 1 gamma) | -1.09 | 0.869 | -0.168 | -0.108 | -0.0893
MAST3 (microtubule associated serine/threonine kinase 3) | 0.58 | 1 | -0.233 | -0.000615 | 0.0506
IRAK1 (interleukin 1 receptor associated kinase 1) | -0.0498 | 0.951 | -0.153 | -0.0874 | -0.0802
RAF1 (Raf-1 proto-oncogene, serine/threonine kinase) | -1.36 | 0.848 | -0.113 | -0.139 | 0.0161
GK2 (glycerol kinase 2) | 0.58 | 1 | -0.172 | -0.211 | -0.0175
WNK3 (WNK lysine deficient protein kinase 3) | 0.58 | 1 | -0.272 | -0.197 | -0.129
DCLK3 (doublecortin like kinase 3) | 0.58 | 1 | -0.096 | -0.148 | -0.0785
TSSK4 (testis specific serine kinase 4) | -0.1 | 0.947 | -0.223 | -0.219 | -0.14
MAP4K1 (mitogen-activated protein kinase kinase kinase kinase 1) | -1.35 | 0.849 | -0.141 | -0.218 | 0.00459
IP6K1 (inositol hexakisphosphate kinase 1) | 0.58 | 1 | -0.247 | -0.0709 | -0.0228
SRP72 (signal recognition particle 72) | -3.09 (active) | 0.713 | -0.436 | -0.34 | -0.298
NEK9 (NIMA related kinase 9) | 0.0868 | 0.961 | -0.0996 | -0.103 | -0.0916
DDR1 (discoidin domain receptor tyrosine kinase 1) | 0.58 | 1 | -0.236 | 0.0999 | 0.0888
NUP62 (nucleoporin 62) | -0.24 | 0.936 | -0.216 | -0.0644 | -0.0419
DAPK1 (death associated protein kinase 1) | 0.438 | 0.989 | -0.147 | -0.152 | -0.0262
PI4KA (phosphatidylinositol 4-kinase alpha) | 0.58 | 1 | -0.267 | -0.0903 | -0.00727
GNAS (GNAS complex locus) | -0.839 | 0.889 | -0.0605 | -0.0305 | 0.074
NEK11 (NIMA related kinase 11) | -0.501 | 0.915 | -0.334 | -0.101 | 0.0165
CDKL3 (cyclin dependent kinase like 3) | 0.58 | 1 | -0.23 | -0.108 | -0.0295
CSNK1E (casein kinase 1 epsilon) | -0.475 | 0.918 | -0.161 | -0.243 | -0.0798
TRIM27 (tripartite motif containing 27) | -0.169 | 0.941 | -0.247 | -0.254 | 0.00461
DGKI (diacylglycerol kinase iota) | 0.58 | 1 | -0.24 | -0.143 | 0.0945
FN3K (fructosamine 3 kinase) | -0.0285 | 0.952 | -0.295 | -0.121 | -0.0002
ADGRL2 (adhesion G protein-coupled receptor L2) | -0.596 | 0.908 | -0.155 | -0.00333 | 0.014
LMTK1 (lemur tail kinase 1) | 0.58 | 1 | -0.259 | 0.0138 | -0.116
EEF2K (eukaryotic elongation factor 2 kinase) | 0.58 | 1 | -0.0609 | -0.0765 | 0.00832
EPHB1 (EPH receptor B1) | 0.445 | 0.99 | -0.28 | -0.0255 | -0.0297
SRC (SRC proto-oncogene, non-receptor tyrosine kinase) | 0.58 | 1 | -0.246 | -0.202 | -0.0381
TWF1 (twinfilin actin binding protein 1) | 0.58 | 1 | -0.2 | -0.211 | -0.0259
CDK11A (cyclin dependent kinase 11A) | -5.04 (active) | 0.56 | -0.222 | -0.26 | -0.196
EGFR (epidermal growth factor receptor) | -1.69 | 0.822 | -0.0212 | -0.197 | 0.00534
STYK1 (STY kinase 1) | 0.58 | 1 | -0.24 | -0.152 | 0.0965
PRKCZ (protein kinase C zeta) | -2.95 | 0.724 | -0.0571 | -0.141 | 0.00341
MAP3K15 (mitogen-activated protein kinase kinase kinase 15) | 0.388 | 0.985 | -0.163 | -0.223 | -0.136
DLG1 (discs large MAGUK scaffold protein 1) | 0.58 | 1 | -0.163 | -0.00235 | -0.00707
PMVK (phosphomevalonate kinase) | 0.58 | 1 | -0.148 | -0.167 | 0.0317
NRBP2 (nuclear receptor binding protein 2) | -2.09 | 0.791 | -0.0718 | -0.132 | 0.000471
CNOT1 (CCR4-NOT transcription complex subunit 1) | -0.106 | 0.946 | -0.0453 | -0.0839 | 0.236
PRKAR1B (protein kinase cAMP-dependent type I regulatory subunit beta) | -1.22 | 0.859 | -0.106 | -0.189 | -0.0209
PRP4K (pre-mRNA processing factor kinase PRP4K) | -0.0487 | 0.951 | -0.0459 | -0.0851 | 0.0887
BMPR1B (bone morphogenetic protein receptor type 1B) | 0.2 | 0.97 | -0.0616 | -0.0489 | 0.0398
CAMK2G (calcium/calmodulin dependent protein kinase II gamma) | 0.58 | 1 | -0.0959 | -0.0208 | 0.056
PRAG1 (PEAK1 related, kinase-activating pseudokinase 1) | 0.58 | 1 | -0.128 | -0.137 | -0.038
TNK2 (tyrosine kinase non receptor 2) | 0.58 | 1 | -0.249 | -0.177 | -0.145
ACO1 (aconitase 1) | -0.301 | 0.931 | 0.109 | 0.000951 | 0.071
AXL (AXL receptor tyrosine kinase) | 0.58 | 1 | -0.137 | -0.211 | -0.0692
TBX3 (T-box transcription factor 3) | 0.58 | 1 | -0.213 | -0.211 | -0.062
SBK1 (SH3 domain binding kinase 1) | 0.58 | 1 | -0.241 | -0.211 | -0.0645
MAP4K4 (mitogen-activated protein kinase kinase kinase kinase 4) | 0.58 | 1 | -0.0238 | 0.0105 | 0.0759
ELP1 (elongator acetyltransferase complex subunit 1) | 0.58 | 1 | -0.183 | -0.186 | -0.0716
NEK8 (NIMA related kinase 8) | -1.13 | 0.866 | -0.0368 | -0.276 | -0.0163
TTBK2 (tau tubulin kinase 2) | -0.21 | 0.938 | -0.0877 | -0.226 | 0.0904
PIM3 (Pim-3 proto-oncogene, serine/threonine kinase) | 0.58 | 1 | -0.11 | -0.117 | 0.124
DGKH (diacylglycerol kinase eta) | 0.58 | 1 | -0.17 | -0.015 | 0.0802

3 of these entries in another layout:
Gene,"robust z-score, knock-down alone","viability vs control pool, no drug (fraction)",synergy score with BYL719,synergy score with cetuximab,synergy score with trametinib
PRKCH (protein kinase C eta),-2.34,0.772,-0.181,-0.0448,0.0605
KALRN (kalirin RhoGEF kinase),0.58,1,-0.237,-0.116,0.0867
ULK3 (unc-51 like kinase 3),0.58,1,-0.251,-0.211,-0.177
